Reference: patent EP1202992B1, “ASCIDIDEMIN DERIVATIVES AND THEIR THERAPEUTIC APPLICATIONS” (CEPHALON FRANCE, priority 1999, dated 2001)

Assay: Ratio tolerance / cytotoxic activity (DMT/CI50)
Conditions: for DMT/CI50: ratio of DMT and mean CI50 expressed as dimensionless numbers; for DMT/CI50*: ratio relative to a ratio of 1 for ascididémine

Molecule | DMT/CI50 | DMT/CI50*
O=C1c2cccnc2-c2nccc3c2c1nc1ccc(NCc2ccccc2)cc13 [CRL 8241, 5-(benzylamino)-9H-quino[4,3,2-de][1,10] phénanthrolin-9-one] | 1,14 | 6
9-H-quino[4,3,2-de][1,10]phénanthrolin-9-one [CRL 8274, reference compound] | 0,20 | 1
5-(diméthylamino-2-éthyl)amino-9H-quino[4,3,2de][1,10] phénanthrolin-9-one [CRL 8419] | 0,67 | 3,3
COc1ccc2nc3c4c(nccc4c2c1)-c1ncccc1C3=O [CRL 8297, 5-méthoxy-9H-quino[4,3,2-de][1,10]phénanthrolin-9-one] | 1,78 | 9
5-chloro-9H-quino [4,3,2-de] [1,10] phénantrolin-9-one [CRL 8301] | 0,59 | 3
O=C1c2nccc(Br)c2-c2nc3ccccc3c3ccnc1c23 [CRL 8248, 5-bromo-9H-quino[4,3,2-de] [1,10]phénantrolin-9-one] | 2,00 | 10
CN(C)c1ccc2nc3c4c(nccc4c2c1)-c1ncccc1C3=O [CRL 8407, Chlorhydratede la 5-(diméthylamino)-9H-quino[4,3,2-de][1,10] phénanthrolin-9-one] | 7,27 | 36
Chlorhydrate de la 5-(diméthylamino-2-éthyl)amino-9H-quino[4,3,2de][1,10] phénanthrolin-9-one [CRL 8418] | 0,37 | 2
Chlorhydrate de la 5-amino-9H-quino[4,3,2-de][1,10]phénanthrolin-9-one [CRL 8406] | 2,67 | 13
2-bromoleptoclinidone [CRL 8269, reference compound] | 0,33 | 2
Nc1ccnc2c1-c1nc3ccccc3c3ccnc(c13)C2=O [CRL 8347, 5-amino-9H-quino[4,3,2-de][1,10]phénanthtolin-9-one] | 7,62 | 38
Cc1ccc2nc3c4c(nccc4c2c1)-c1ncccc1C3=O [CRL 8323, 5-méthyl-9H-quino [4,3,2-de][1,10] phénanthrolin-9-one] | 0,33 | 2
CN(C)c1ccc2nc3c4c(nccc4c2c1)-c1ncccc1C3=O [CRL 8325, 5-(diméthylamino)-9H-quino[4,3,2-de][1,10]phénanthrolin-9-one] | 4,32 | 22
5-bis(2-chloroéthyl)amino-9H-quino[4,3,2de][1,10] phénanthrolin-9-one [CRL 8422] | 1,60 | 8,3
COc1ccnc2c1C(=O)c1nc3ccc(Br)cc3c3ccnc-2c13 [CRL 8389, 5-bromo-10-méthoxy-9H-quino[4,3,2-de][1,10]phénanthrolin-9-one] | 0,38 | 2
O=C1c2cccnc2-c2nccc3c2c1nc1ccc(NCc2ccccc2)cc13 [CRL 8416, Chlorhydratede la 5-(benzylamino)-9H-quino[4,3,2-de][1,10] phénanthrolin-9-one] | 2,00 | 10
5-(2-chloroéthyl)amino-9H-quino[4,3,2de][1,10] phénanthrolin-9-one [CRL 8423] | 22,86 | 114
